# Library screen at single concentrations

By UniProt entry, the sequences of proteins in these tests, tags left out.
UniProt P9WFT3, whole entry: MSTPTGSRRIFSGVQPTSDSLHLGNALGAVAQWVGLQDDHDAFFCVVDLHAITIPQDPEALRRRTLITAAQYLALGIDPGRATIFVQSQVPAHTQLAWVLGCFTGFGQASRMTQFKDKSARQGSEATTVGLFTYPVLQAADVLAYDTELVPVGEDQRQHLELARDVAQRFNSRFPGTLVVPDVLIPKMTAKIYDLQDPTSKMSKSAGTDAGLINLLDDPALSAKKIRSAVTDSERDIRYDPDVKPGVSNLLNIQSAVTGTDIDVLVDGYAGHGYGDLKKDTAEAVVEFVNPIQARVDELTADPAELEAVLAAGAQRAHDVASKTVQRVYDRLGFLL

The values are deposited in ChEMBL (CHEMBL3988442, “University of Dundee, Small-Polar-MMV Screening Library” (2021)).

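Tryptophan-tRNA ligase, Mycobacterium tuberculosis (UniProt P9WFT3). Enzyme assay of tryptophanyl-tRNA synthetase; the read-out is not stated. Tested at 10 µM. Higher most likely means stronger inhibition; the record gives no direction and few retests gave an IC50. Of about 65,000 compounds tested this way, about 64 (0.098%) reached 50% or more in at least one test.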

The filed quantity is “Percent Effect” (%). The record does not define 0% and 100%; most values in the screen are far below 50% and negative numbers occur (in some assays of this library far below -100). This is an unselected part of the compounds tested.

- O=S(=O)(N1CCCCCC1)N1CCc2sccc2C1 : -1.459%
- COc1ccc(-c2n[nH]c(C)c2CC(=O)N2CCOCC2)cc1 : 0%
- CN(CCCc1cnn(C)c1)C(=O)Nc1cccc(C#N)c1 : -1.83%
- Cc1ccoc1CNCc1nnc2n1CC(C(F)(F)F)CC2 (stereo not shown) : -5.294%
- Nc1nccnc1C(=O)N1CCN(CCOc2ccccc2)CC1 : 8.111%
- COc1cccc(CNc2nc(O)cc(C3CC(=O)N(C)C3)n2)c1 (stereo not shown) : 6.104%
- CCc1n[nH]c(C2CN(C(=O)c3ccc4c(c3)CCCC4)CCO2)n1 (stereo not shown) : -7.273%
- OCc1ccc(-c2nccn2CCc2nc3c(s2)CCCC3)o1 : 1.005%
- Cc1nc(N2CCC(O)(c3ccc(F)cc3)CC2)c2c(C)nn(C)c2n1 : 1.464%
- CN(C)C(=O)CC1CC2(CCN(C(=O)N(C)C)CC2)Oc2ccccc21 (stereo not shown) : -1.341%
- Clc1cccc(C[C@@H]2NCCC[C@@H]2Nc2ccccc2)c1 : -6.997%
- CCCNC(=O)c1cccc(CNCc2csc(C(C)C)n2)c1 : -0.1285%
- Cc1cc(Nc2ncccn2)nc(C2CCCN(CCO)C2)n1 (stereo not shown) : 3.513%
- Cc1c(C)n(Cc2ccccn2)c2nc3c(c(N)c12)CCCCCC3 : 0.3501%
- O=C(NCCNS(=O)(=O)c1cccc(Cl)c1)C1CCCO1 (stereo not shown) : 6.62%
- CN(Cc1cnc(N)nc1)C(=O)C1CCN(C(=O)C2CCCC2)CC1 : -1.724%
- CCCN1C[C@H](NC(=O)c2cccs2)[C@@H](c2ccc(OC)cc2)C1 : 0.6377%
- CCc1ncc2c(n1)CN(CC(=O)NCCOc1ccccc1)CC2 : 4.386%
- O=S(=O)(Nc1cn[nH]c1)c1ccc(F)c(Br)c1 : 3.995%
- COc1ccc(N2CCCC3(C2)CN(c2cccnc2)CCO3)cc1 (stereo not shown) : -8.296%
- CCOc1ccnc(N2CCN(C(=O)c3cc(Cl)c[nH]3)CC2)n1 : -0.07868%
- COc1ncccc1CN1C[C@@H]2COC[C@]2(CNC(=O)c2ccno2)C1 : -1.521%
- O=C(NCC1CCCO1)c1nc2c(s1)CCCN2CC1CC1 (stereo not shown) : 2.571%
- Cc1nc2[nH]cnc(Nc3ccn(C)n3)c-2n1 : -0.000006%
- O=C(NC1CCC1)C1CCC2(CN(C(=O)c3ccco3)C2)O1 (stereo not shown) : -2.229%
- Fc1cccc(-c2nnn3c2COC(CNCc2ccsc2)C3)c1 (stereo not shown) : -4.068%
- Cc1cc(CC(=O)N2CCc3cc(Br)sc3C2)n[nH]1 : 8.664%
- C[C@@H]1CN(C(=O)C2(Cn3cccn3)CC2)C[C@@]1(O)C1CCC1 : 6.056%
- CCC(Nc1nc(CCN)nc2ccccc12)c1cccs1 (stereo not shown) : -5.004%
- Cc1nc(C2CCCN(C(=O)c3cnn(C(C)(C)C)c3)C2)no1 (stereo not shown) : -0.8772%
- Cc1nn(-c2ccccc2)c(C)c1-c1ccnc(N2CCC(O)CC2)n1 : -7.143%
- Cc1ccc2c(n1)N(CCn1cccn1)CCN(CC1CC1)C2 : -11.34%
- COc1ccc(CN2CCCC(Cn3nc(C)nc3C)C2)cc1F (stereo not shown) : -4.776%
- c1ccc(NCc2cccc(OCCN3CCOCC3)c2)nc1 : -3.673%

For reference, 2 entries once more:

{"smiles": "Cc1nn(-c2ccccc2)c(C)c1-c1ccnc(N2CCC(O)CC2)n1", "percent effect": -7.143}
{"smiles": "Cc1c(C)n(Cc2ccccn2)c2nc3c(c(N)c12)CCCCCC3", "percent effect": 0.3501}